# Measured values: patent US20070054916A1, “Aryl nitrogen-containing bicyclic compounds and methods of use” (Amgen Inc., priority 2004, published 2007)
# Chains of the proteins cited; added tags and fusions are not shown. Residues count along the entry.
# UniProt Q02763, 23-1124: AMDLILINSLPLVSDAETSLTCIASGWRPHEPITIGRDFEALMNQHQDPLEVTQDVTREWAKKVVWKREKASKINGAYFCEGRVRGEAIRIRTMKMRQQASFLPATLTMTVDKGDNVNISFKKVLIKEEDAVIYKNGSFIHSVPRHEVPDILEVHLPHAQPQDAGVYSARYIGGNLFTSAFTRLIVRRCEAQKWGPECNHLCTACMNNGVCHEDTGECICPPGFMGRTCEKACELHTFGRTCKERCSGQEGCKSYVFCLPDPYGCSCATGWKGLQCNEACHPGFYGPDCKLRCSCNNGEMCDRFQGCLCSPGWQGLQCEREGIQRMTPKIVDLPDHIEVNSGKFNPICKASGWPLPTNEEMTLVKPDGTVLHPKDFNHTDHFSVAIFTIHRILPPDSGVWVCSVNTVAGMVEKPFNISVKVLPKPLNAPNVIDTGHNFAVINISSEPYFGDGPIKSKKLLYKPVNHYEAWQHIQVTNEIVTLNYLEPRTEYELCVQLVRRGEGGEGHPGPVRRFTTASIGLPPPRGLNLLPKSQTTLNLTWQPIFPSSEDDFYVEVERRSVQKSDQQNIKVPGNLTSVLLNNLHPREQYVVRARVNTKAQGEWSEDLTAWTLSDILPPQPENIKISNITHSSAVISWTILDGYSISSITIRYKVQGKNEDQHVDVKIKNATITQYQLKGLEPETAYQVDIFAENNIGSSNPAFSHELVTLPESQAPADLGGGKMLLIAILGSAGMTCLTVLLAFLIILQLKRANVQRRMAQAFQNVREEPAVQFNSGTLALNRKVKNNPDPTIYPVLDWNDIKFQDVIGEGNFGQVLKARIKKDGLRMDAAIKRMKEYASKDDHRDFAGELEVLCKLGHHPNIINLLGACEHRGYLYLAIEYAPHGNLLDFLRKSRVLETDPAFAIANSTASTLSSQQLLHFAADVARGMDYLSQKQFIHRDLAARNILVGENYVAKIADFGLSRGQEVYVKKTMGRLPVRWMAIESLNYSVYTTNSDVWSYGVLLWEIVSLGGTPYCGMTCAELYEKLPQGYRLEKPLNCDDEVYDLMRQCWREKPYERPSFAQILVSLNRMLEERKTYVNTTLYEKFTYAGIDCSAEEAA
# Some results were stated once for a whole list of compounds, not compound by compound.
# Biological target: Tie-2 kinase enzyme (Homo sapiens, UniProt Q02763)
# Test: Tie-2 Homogenous Time Resolved Flourescent (HTRF) kinase assay
# Assay type: biochemical
# Conditions: read-out: IC50's for the inhibition of Tie-2 as measured by the HTRF assay
row,Structure (SMILES),IC50 [µM]
1,"Cc1ccc(C(=O)Nc2cc(C(C)(C)C)on2)cc1-c1ccc2ncnc(N)c2c1 [Example 403, 3-(4-amino-6-quinazolinyl)-N-(5-(1,1-dimethylethyl)-3-isoxazolyl)-4-methylbenzamide]",≤ 1
2,"Cc1ccc(C(=O)Nc2cccc(OC(F)(F)C(F)F)c2)cc1-c1ccc2ncnc(N)c2c1 [Example 405, 3-(4-amino-6-quinazolinyl)-4-methyl-N-(3-((1,1,2,2-tetrafluoroethyl)oxy)phenyl)ben zamide]",≤ 1
3,"COc1ccc(C2CCCCC2)cc1NC(=O)c1ccc(C)c(-c2ccc3ncnc(N)c3c2)c1 [Example 406, 3-(4-amino-6-quinazolinyl)-N-(5-cyclohexyl-2-(methyloxy)phenyl)-4-methylbenzamide]",≤ 1
4,"Cc1ccc(C(=O)Nc2cc(C(C)(C)C)cc(C(C)(C)C)c2)cc1-c1ccc2ncnc(N)c2c1 [Example 407, 3-(4-amino-6-quinazolinyl)-N-(3,5-bis(1,1-dimethylethyl)phenyl)-4-methylbenzamide]",≤ 1
5,"Cc1ccc(C(=O)Nc2cccc(C(C)C)c2)cc1-c1ccc2ncnc(N)c2c1 [Example 415, 3-(4-amino-6-quinazolinyl)-4-methyl-N-(3-(1-methylethyl)phenyl)benzamide]",≤ 1
6,"O=C(Nc1cc(C(F)(F)F)ccc1N1CCCCC1)c1cccc(-c2ccc3ccncc3c2)c1 [Example 416, 3-(7-isoquinolinyl)-N-(2-(1-piperidinyl)-5-(trifluoromethyl)phenyl)benzamide]",≤ 1
7,"CN(C)CCCN(C)c1ccc(C(F)(F)F)cc1NC(=O)c1cccc(-c2ccc3nc(N)ncc3c2)c1 [Example 417, 3-(2-amino-6-quinazolinyl)-N-(2-((3-(dimethylamino)propyl)(methyl)amino)-5-(trifluoromethyl)phenyl)benzamide]",≤ 1
8,"Nc1ncc2cc(-c3ccc(F)c(C(=O)Nc4cc(C(F)(F)F)ccc4N4CCCCC4)c3)ccc2n1 [Example 418, 5-(2-amino-6-quinazolinyl)-2-fluoro-N-(2-(1-piperidinyl)-5-(trifluoromethyl)phenyl)benzamide]",≤ 1
9,"CN1CC[C@@H](N(C)c2ccc(C(F)(F)F)cc2NC(=O)c2cc(-c3ccc4nc(N)ncc4c3)ccc2F)C1 [Example 419, 5-(2-amino-6-quinazolinyl)-2-fluoro-N-(2-(methyl((3R)-1-methyl-3-pyrrolidinyl)amino)-5-(trifluoromethyl)phenyl)benzamide]",≤ 1
10,"Cc1ccc(C(=O)Nc2cc(C(F)(F)F)ccc2OCCN2CCCC2)cc1-c1ccc2nc(N)ncc2c1 [Example 420, 3-(2-amino-6-quinazolinyl)-4-methyl-N-(2-((2-(1-pyrrolidinyl)ethyl)oxy)-5-(trifluoromethyl)phenyl)benzamide]",≤ 1
11,"CN1CCN(c2ccc(C(F)(F)F)cc2NC(=O)c2cc(-c3ccc4nc(N)ncc4c3)ccc2F)CC1 [Example 421, 5-(2-amino-6-quinazolinyl)-2-fluoro-N-(2-(4-methyl-1-piperazinyl)-5-(trifluoromethyl)phenyl)benzamide]",≤ 1
12,"CN(C)[C@@H]1CCN(c2ccc(C(F)(F)F)cc2NC(=O)c2cc(-c3ccc4nc(N)ncc4c3)ccc2F)C1 [Example 422, 5-(2-amino-6-quinazolinyl)-N-(2-((3R)-3-(dimethylamino)-1-pyrrolidinyl)-5-(trifluoromethyl)phenyl)-2-fluorobenzamide]",≤ 1
13,"Cc1ccc(C(=O)Oc2c(F)c(F)c(F)c(F)c2F)cc1-c1ccc2nc(N)ncc2c1 [Example 423, Perfluorophenyl-3-(2-aminoquinazolin-6-yl)-4-methylbenzoate]",≤ 1
14,"Cc1ccc(C(=O)Nc2cccc(C#N)c2)cc1-c1ccc2nc(N)ncc2c1 [Example 429, 3-(2-amino-6-quinazolinyl)-N-(3-cyanophenyl)-4-methylbenzamide]",≤ 1
15,"Cc1ccc(NC(=O)c2cc(C(F)(F)F)ccc2C(F)(F)F)cc1-c1ccc2nc(N)ncc2c1 [Example 430, N-(3-(2-amino-6-quinazolinyl)-4-methylphenyl)-2,5-bis(trifluoromethyl)benzamide]",≤ 1
16,"Cc1ccc(NC(=O)c2cc(C(F)(F)F)ccc2N(C)CCCN(C)C)cc1-c1ccc2nc(N)ncc2c1 [Example 431, N-(3-(2-amino-6-quinazolinyl)-4-methylphenyl)-2-((3-(dimethylamino)propyl)(methyl)amino)-5-(trifluoromethyl)benzamide]",≤ 1
17,"Nc1ncc2cc(-c3ccc(F)c(NC(=O)c4cc(C(F)(F)F)ccc4F)c3)ccc2n1 [Example 433, N-(5-(2-aminoquinazolin-6-yl)-2-fluorophenyl)-2-fluoro-5-(trifluoromethyl)benzamide]",≤ 1
18,"CN1CCN(c2ccc(C(F)(F)F)cc2C(=O)Nc2cc(-c3ccc4nc(N)ncc4c3)ccc2F)CC1 [Example 434, N-(5-(2-aminoquinazolin-6-yl)-2-fluorophenyl)-2-(4-methylpiperazin-1-yl)-5-(trifluoromethyl)benzamide]",≤ 1
19,"Cc1cc(NC(=O)c2cccc(C(F)(F)F)c2)ccc1-c1ccc2nc(N)ncc2c1 [Example 435, N-(4-(2-amino-6-quinazolinyl)-3-methylphenyl)-3-(trifluoromethyl)benzamide]",≤ 1
20,"Cc1ccc(NC(=O)c2cccc(C(F)(F)F)c2)cc1-c1ccc2nc(N)ncc2c1 [Example 438, N-(3-(2-amino-6-quinazolinyl)-4-methylphenyl)-3-(trifluoromethyl)benzamide]",≤ 1

row,Structure (SMILES),IC50 [µM]
1,"Cc1ccc(NC(=O)c2cc(C(F)(F)F)cc(C(F)(F)F)c2)cc1-c1ccc2nc(N)ncc2c1 [Example 441, N-(3-(2-amino-6-quinazolinyl)-4-methylphenyl)-3,5-bis(trifluoromethyl)benzamide]",≤ 1
2,"Cc1ccc(NC(=O)c2cccc(C(F)(F)F)c2F)cc1-c1ccc2nc(N)ncc2c1 [Example 442, N-(3-(2-amino-6-quinazolinyl)-4-methylphenyl)-2-fluoro-3-(trifluoromethyl)benzamide]",≤ 1
3,"Cc1ccc(NC(=O)c2cc(Cl)cc(Cl)c2)cc1-c1ccc2nc(N)ncc2c1 [Example 444, N-(3-(2-amino-6-quinazolinyl)-4-methylphenyl)-3,5-dichlorobenzamide]",≤ 1
4,"Cc1ccc(NC(=O)c2cc(F)cc(C(F)(F)F)c2)cc1-c1ccc2nc(N)ncc2c1 [Example 445, N-(3-(2-amino-6-quinazolinyl)-4-methylphenyl)-3-fluoro-5-(trifluoromethyl)benzamide]",≤ 1
5,"COc1ccc(C(=O)Nc2ccc(C)c(-c3ccc4nc(N)ncc4c3)c2)cc1C(F)(F)F [Example 446, N-(3-(2-amino-6-quinazolinyl)-4-methylphenyl)-4-(methyloxy)-3-(trifluoromethyl)benzamide]",≤ 1
6,"Cc1ccc(NC(=O)c2cccc(C(F)(F)F)c2C)cc1-c1ccc2nc(N)ncc2c1 [Example 448, N-(3-(2-amino-6-quinazolinyl)-4-methylphenyl)-2-methyl-3-(trifluoromethyl)benzamide]",≤ 1
7,"Cc1ccc(NC(=O)c2ccc3ccccc3c2)cc1-c1ccc2nc(N)ncc2c1 [Example 449, N-(3-(2-amino-6-quinazolinyl)-4-methylphenyl)-2-naphthalenecarboxamide]",≤ 1
8,"Cc1ccc(NC(=O)c2cccc3ccccc23)cc1-c1ccc2nc(N)ncc2c1 [Example 450, N-(3-(2-amino-6-quinazolinyl)-4-methylphenyl)-1-naphthalenecarboxamide]",≤ 1
9,"Cc1ccc(NC(=O)c2cccc3c2OC(F)(F)O3)cc1-c1ccc2nc(N)ncc2c1 [Example 451, N-(3-(2-amino-6-quinazolinyl)-4-methylphenyl)-2,2-difluoro-1,3-benzodioxole-4-carboxamide]",≤ 1
10,"Cc1ccc(NC(=O)c2ccc3c(c2)C(C)(C)CCC3(C)C)cc1-c1ccc2nc(N)ncc2c1 [Example 452, N-(3-(2-amino-6-quinazolinyl)-4-methylphenyl)-5,5,8,8-tetramethyl-5,6,7,8-tetrahydro-2-naphthalenecarboxamide]",≤ 1
11,"Cc1ccc(NC(=O)c2cc(C(C)(C)C)nn2C)cc1-c1ccc2nc(N)ncc2c1 [Example 453, N-(3-(2-amino-6-quinazolinyl)-4-methylphenyl) 3-(1,1-dimethylethyl)-1-methyl-1H-pyrazole-5-carboxamide]",≤ 1
12,"Cc1ccc(NC(=O)c2cccc(Cl)c2F)cc1-c1ccc2nc(N)ncc2c1 [Example 455, N-(3-(2-amino-6-quinazolinyl)-4-methylphenyl)-3-chloro-2-fluorobenzamide]",≤ 1
13,"Cc1ccc(NC(=O)c2cc3ccccc3o2)cc1-c1ccc2nc(N)ncc2c1 [Example 457, N-(3-(2-amino-6-quinazolinyl)-4-methylphenyl)-1-benzofuran-2-carboxamide]",≤ 1
14,"Cc1ccc(NC(=O)c2cc(C(C)(C)C)cc(C(C)(C)C)c2)cc1-c1ccc2nc(N)ncc2c1 [Example 464, N-(3-(2-amino-6-quinazolinyl)-4-methylphenyl)-3,5-bis(1,1-dimethylethyl)benzamide]",≤ 1
15,"COc1cc(OC)cc(C(=O)Nc2ccc(C)c(-c3ccc4nc(N)ncc4c3)c2)c1 [Example 465, N-(3-(2-amino-6-quinazolinyl)-4-methylphenyl)-3,5-bis(methyloxy)benzamide]",≤ 1
16,"Cc1ccc(C(=O)Nc2ccc(C)c(-c3ccc4nc(N)ncc4c3)c2)cc1C [Example 466, N-(3-(2-amino-6-quinazolinyl)-4-methylphenyl)-3,4-dimethylbenzamide]",≤ 1
17,"Cc1ccc(NC(=O)c2ccc(Cl)cc2C(F)(F)F)cc1-c1ccc2nc(N)ncc2c1 [Example 469, N-(3-(2-amino-6-quinazolinyl)-4-methylphenyl)-4-chloro-2-(trifluoromethyl)benzamide]",≤ 1
18,"Cc1ccc(NC(=O)c2cccc(C)c2Cl)cc1-c1ccc2nc(N)ncc2c1 [Example 471, N-(3-(2-amino-6-quinazolinyl)-4-methylphenyl)-2-chloro-3-methylbenzamide]",≤ 1
19,"COc1ccc(NC(=O)c2cccc(C(F)(F)F)c2F)cc1-c1ccc2nc(N)ncc2c1 [Example 473, N-(3-(2-amino-6-quinazolinyl)-4-(methyloxy)phenyl)-2-fluoro-3-(trifluoromethyl)benzamide]",≤ 1
